In the supplement of paper PMC4683952:
The list shows a part of the results. Cut-off read from the data, not from the text of the source: active = 2 or more and inactive = the rest. Repeats in this data set agree poorly, so a single value says little.

tested on: Lgr5 (MarsCy1-Lgr5-EGFP, U2OS); experiment: cell-surface Lgr5 expression (SCi1 fluorescence, background-subtracted) relative to WT DMSO (fold of DMSO control); higher = more Lgr5 at the plasma membrane; details: U2OS MarsCy1-Lgr5-EGFP stable; treatment time: overnight; library: ActiProbe-5K (TimTec); 25 µM

cell-surface Lgr5 expression, inactive:
CCS(=O)(=O)Nc1ccc(Br)cn1 1.11
CSC1=NC2CCCCC2N1 (stereo unspecified) 0.973
Cc1ccc(C2C(C#N)=C(N)Oc3[nH]nc(C)c32)o1 (stereo unspecified) 1.24
c1cc(-c2nnc3n2N=C(c2ccc4c(c2)OCO4)CS3)ccn1 0.43
C1C([C@H](OCC(=O)O)CC(C1)C)[C@H](C)C (stereo partly specified) 1.36
c1(/c(nc2ccccc2nc1C)C)=N\OCc1c(F)cccc1 1.26
C(=c1/cc/c(=C(/C#N)C#N)cc1)(/C#N)C#N 1.07
Brc1ccc2noc(-c3ccccc3)c2c1 1.14
Cl.c1ccc2c(c1)CCCC2C1=NCCN1 (stereo unspecified) 1.24
CC1(C)Nc2ccccc2-c2c1ssc2=S 0.491
CN(C)S(=O)(=O)Nc1cccc(N)c1 1.23
CN(C)c1ccc(-c2cc[n+](-c3nc4ccccc4nc3[N-]S(=O)(=O)c3ccccc3)cc2)cc1 1.25
Brc1ccc2cc[nH]c2c1 1.07
Fc1ccc(Nc2nc(Cl)nc(Cl)n2)c(F)c1 1.3
CC12CCC(C1)C(C)(C)C2NS(=O)(=O)c1ccc(F)cc1 (stereo unspecified) 1.48
Fc1ccc(NC(=S)N2CCc3ccccc32)cc1 1.34
c1csc(Cc2cccs2)c1 1.49
O=c1[nH]c2ccnc(Cl)c2[nH]1 1.23
CC(C)(C)OC(=O)N1Cc2[nH]cnc2CC1C(=O)O (stereo unspecified) 1.63
O=C1Nc2c(ccc(Cl)c2Cl)C12OCCCO2 1.27
O=c1oc2cc([N+](=O)[O-])ccc2c2ccc([N+](=O)[O-])cc12 1.28
COc1ccc2c(=O)ccccc2c1OC 1.14
COc1cc(OC)c(/C=N\NC(N)=S)cc1Br 1.2
CCN(CC)C(=O)NCCNC(=O)N(CC)CC 1.39
CC(C)(C)C1=Nn2c(nnc2-c2ccc(C(C)(C)C)cc2)SC1 0.861
CN(C)CCCN1C(=O)C(O)=C(C(=O)c2ccco2)C1c1cccs1 (stereo unspecified) 1.08
Nc1nc2c(F)cc(F)cc2s1 1.25
CC1=NNC(=O)C1CC(=O)N/N=C/c1ccc(C)o1 (stereo unspecified) 1.05
CCCSc1nnc2c(n1)OC(CC)Nc1ccccc1-2 (stereo unspecified) 0.956
COC(=O)/C(C#N)=C/c1nccn1C 1.23
CCOC(=O)C1=C(C)NC(=O)NC1c1ccc(C)o1 (stereo unspecified) 1.07
OC1CCCCC1c1cccs1 (stereo unspecified) 1.27
CN(C)C(=O)N1CCN(S(=O)(=O)c2ccc3c(c2)OCCO3)CC1 1.16
Cn1cc([N+](=O)[O-])c(C(=O)n2cccn2)n1 1.02
C=CCNS(=O)(=O)c1ccc(OC)c(OC)c1 1.21
O=c1c2ccccc2nc2ccc3nnnn3n12 1.1
CC1(C)NC(=O)N(CO)C1=O 1.4
CC1CCN(c2nc(N3CCOCC3)nc(N3CCOCC3)n2)CC1 1.11
Cc1ccc(/C=N/NC(=O)C(=O)NC(C)C)o1 1.12
Cn1cc(Br)c(C(=O)O)n1 1.29
C=CCOC(=O)CCCC(=O)NC1CCCCC1 1.08
CC1(C)CC(/N=N/C2CC(C)(C)NC(C)(C)C2)CC(C)(C)N1 1.21
Oc1ccc(/C=N\n2cnnc2)c(O)c1 0.865
COc1c(C)c(C)c(OC)c(S(=O)(=O)NCc2ccco2)c1C 1.13
O=S(=O)(c1ccc(Br)cc1)N1CCCCCC1 1.42
CSc1nsc(SC)c1C#N 1.22
CC(=O)Nc1ncnc2[nH]nnc12 0.913
Cc1nc2sc3c(c2c(=O)n1-n1cccc1)CCCC3 1.11
CS(=O)(=O)Nc1cc(C(F)(F)F)ccc1Oc1ccc2c(c1)OCO2 1.35
Oc1cc(Cl)c(Cl)c(Cl)c1O 1.44
c1csc(C2NCCc3sccc32)c1 (stereo unspecified) 1.06
C1(=C([C@]([C@@H]([C@@H]2(C1=CCN(C2)CC))c1cscc1)(C#N)C#N)N)C#N 1.29
CN1C(=O)OC2(CC(C)(C)NC(C)(C)C2)C1(C)O (stereo unspecified) 0.813
CC(C)(C)c1n[nH]c2c1C(c1ccc(Br)s1)C(C#N)=C(N)O2 (stereo unspecified) 1.33
Cc1cc(C)c(S(=O)(=O)NC(C)C)c(C)c1 0.954
CC1CN(S(=O)(=O)c2ccc3ccccc3c2)CCN1S(=O)(=O)c1ccc2ccccc2c1 (stereo unspecified) 1.52
CCC(C)(C)C(=O)Nc1cc(C)on1 1.12
CS(=O)(=O)OCC1COC(Cn2ccnn2)(c2ccc(Cl)cc2Cl)O1 (stereo unspecified) 1.22
O=C(O)c1n[nH]cc1Cl 1.06
O=C1CCCc2c1sc1nc3n(c(=O)c21)CCCCC3 1.19
CC(C)N=C1/C(=C/c2ccc(C(C)(C)C)cc2)COC/C1=C/c1ccc(C(C)(C)C)cc1 1.13
O=C(NC1CC1)c1n[nH]c(=O)c2ccccc12 1.28
N#CCOc1ccc2c(c1)OCO2 1.21
Cc1n[nH]c2c1C1(CCCCC1)C(C#N)=C(N)O2 1.15
C=CCC1CC=CC(CC=C)(C(O)(CC=C)CC=C)N1 (stereo unspecified) 1.23
Fc1cc2nc(S)[nH]c2cc1Cl 1.15
CCCCNC(=O)C(=O)NCCCn1ccnc1 1.11
CCN(CC)c1cc(F)c([N+](=O)[O-])cc1[N+](=O)[O-] 0.285
C1(C=2C(CN(CC2)CC)C(/C(=C1N)C#N)=C1/CCN(CC1)CC)(C#N)C#N (stereo unspecified) 1.06
c1csc(C2Nc3cccc4cccc(c34)N2)c1 1.5
O=S(=O)(NCCC1C=CCCC1)c1ccc(Br)s1 (stereo unspecified) 1.27
Oc1ccc(Cl)cc1C1=NCCNC(C(F)(F)F)=C1 1.1
Sc1nnc(-c2ccco2)n1/N=C/c1cccs1 0.969
CCCSc1ncc(C#N)c(N)n1 1.13
Cn1cc(-c2cc(C(=O)O)on2)cn1 1.28
CC(=O)Nc1nc(SCSc2n[nH]c(NC(C)=O)n2)n[nH]1 1.21
Cn1c(=O)n(C)c2cc(Cl)ccc21 1.61
CC(=O)CSc1ncnc2sc3c(c12)CCC(C)C3 (stereo unspecified) 1.28
Cc1cc2c(c(=O)o1)C(c1ccc(Cl)s1)C(C#N)=C(N)O2 (stereo unspecified) 1.62
Cn1ncc(Br)c1C(=O)Nc1cnccn1 0.989
CCN(CC)CCCNC(=O)C(=O)NCCCN(CC)CC 0.996
C=C(O)c1ccc(-c2nnn(Cc3ccc(C)cc3)n2)cc1.O 0.913
CN(C)c1ccc(N2CC(=O)S/C2=N/C#N)cc1 1.35
COc1nc(C)nc2onc(-c3ccc(C)s3)c12 1.23
CCS(=O)(=O)c1ccc(Cl)cc1 1.2
COC(=O)c1ccc(Br)o1 1
CC(C)Cn1c(=O)n(C)c(=O)c2[nH]cnc21 1.41
C=C(C)CNC(=S)Nc1ccc(F)c(F)c1 1.06
O=C1C(=O)N2CCCc3cccc1c32 1.28
COc1ccc(C2NN=C(c3ccccc3)S2)c2ccccc12 (stereo unspecified) 0.924
N=c1[nH]c(=O)c2nn[nH]c2[nH]1 0.982
Clc1ccc(/C=N\N=c2/[nH]c(-c3ccc(Br)cc3)cs2)cc1 0.925
C=CCNc1nc(N)c(/C(N)=N\C#N)s1 1.04
Sc1nnc(-c2cccs2)o1 1.23
C=CCC1Cc2ccccc2C(CC=C)N1.Cl (stereo unspecified) 1.15
Nc1ncc2c(n1)CCCC2=O 1.07
Cc1nc2c(o1)CCc1ccccc1C2O (stereo unspecified) 0.796
COc1nc(N2CCCCCC2)nc(N2CCCCCC2)n1 1.33
N#C/C(=C/c1ccc2c(c1)OCO2)C(N)=S 1.09
CN(c1nc2ccccn2c(=O)c1C=O)C1CCCCC1 0.925
O=S(=O)(Nc1cc(Cl)cc(Cl)c1)c1ccc(F)cc1 1.14
O=[N+]([O-])c1ccc(Cl)c(Nc2nc3nonc3nc2Nc2cc([N+](=O)[O-])ccc2Cl)c1 1.2
C(=N/N1CCN(C2c3ccccc3-c3ccccc32)CC1)/c1cccc2ccccc12 0.958
FC(OC(F)(F)F)c1nc2ccccc2[nH]1 (stereo unspecified) 0.979
CC1CN(S(=O)(=O)c2cccs2)CC(C)O1 (stereo unspecified) 1.43
C=CC[C@@H]1Cc2c(Br)ccc(Br)c2[C@@H](CC=C)N1.Cl 1.16
NS(=O)(=O)c1ccc2c(c1)NC(=O)CO2 1.16
O=C1CC(O)(C(F)(F)F)OCC12CCCCC2 (stereo unspecified) 1.02

Nothing new here: 2 of the compounds above.
cell-surface Lgr5 expression, inactive:
CC(=O)CSc1ncnc2sc3c(c12)CCC(C)C3 (stereo unspecified) 1.28
Cc1cc2c(c(=O)o1)C(c1ccc(Cl)s1)C(C#N)=C(N)O2 (stereo unspecified) 1.62

An excerpt from above in order of length of the SMILES, ascending:
cell-surface Lgr5 expression, inactive:
Brc1ccc2cc[nH]c2c1 1.07
O=c1c2ccccc2nc2ccc3nnnn3n12 1.1
O=C1CCCc2c1sc1nc3n(c(=O)c21)CCCCC3 1.19

Next part.

cell-surface Lgr5 expression, active:
N#Cc1c(/N=C\c2ccc([N+](=O)[O-])o2)sc2c1CCCC2 2.09
Cc1cc(C)nc(Sc2ccc3nsnc3c2[N+](=O)[O-])n1 3.49
O=S(=O)(c1ccc2oc3ccccc3c2c1)N1CCN(c2ccccc2)CC1 2.04
